These results are taken from patent US9182410.

The test has as its target TNFR2:Fc (human). As to the kind of experiment: Protein A affinity chromatography (MabSelect SuRe resin), capture from cell-free culture supernatant, elution at pH ~3.2.

No constants are given. Whether binding was seen depends on the method and setting. Some binding calls cover weakened binding; strength is not graded here.

For the substance “Protein A (MabSelect SuRe resin, GE Healthcare) (from UniProt P38507 212-269)”, the binding entry is “binds”.
